Test system: U2Os (human osteosarcoma cells)
Assay: Intracellular distribution by confocal laser
Type: cell-based
Settings: 10 μM and 5 μM, 8 h and 24 h; for Intracellular distribution (fluorescence co-localization): DAPI nuclear stain

Row | SMILES | Content entering the cell | Intracellular distribution (fluorescence co-localization)
1 | N=C(CCl)NCCC[C@H](Nc1ccc([N+](=O)[O-])c2nonc12)C(=O)NCc1ccccc1 [ZD-E-1, (S)—N-benzyl-5-(2-chloroacetimido)-2-((7-nitro-2,1,3-benzoxadiazol-4-yl)amino)pentaneamide] | increasing content entering the cell with an increase of concentration and the extension of time | distributed in both the nucleus and cytoplasm
2 | CC(C)C[C@H](Nc1ccc([N+](=O)[O-])c2nonc12)C(=O)N[C@H](C(=O)OCc1ccccc1)C(C)C [ZD-B, NBD-LV-OBzl] |  | did not enter the nucleus, but was dispersed in the cytoplasm

— patent US12673120B2, “Fluorescently-traceable amino acid derivative and preparation methods and use thereof” (priority 2020, dated 2026)
